PubChem BioAssay AID192 (DTP/NCI, 2004)
The list is a part of this screen's results and no random one: it covers a few groups of compounds. Other doses and runs of a compound may be missing. T/C is the treated group as % of the vehicle group. Some entries give survivors of the animals treated and no T/C: the source holds a T/C of zero for them, seemingly a mark for toxic or unscored doses. Some survivor counts are full or nearly so, which does not show that the dose was tolerated: survival well below the control is almost never listed, so the zero probably covers shortened survival too. Counts of survivors are from the toxicity check (mostly the fifth day) where no day follows; animals may have died later. Schedules are NCI's codes, read here as Q, the interval in days (D) or hours (H), X, the number of doses. Some entries were tested several times; their values stand side by side, smallest first. Marks such as (2×) stand for listed records that agree. Where survival is the endpoint, the PubChem record calls one and a half times the control and up active, and a quarter to a half above the control has no call in these data; cut-offs in other NCI protocols can differ. Some T/C values carry the count of animals alive at the toxicity check (mostly the fifth day); where neither a count nor a note follows, no animal had died by that day.

Tested on: BDF1 mice, B16 melanoma ip, median survival T/C
Assay: NCI In Vivo Anticancer Drug Screen. Data for tumor model B16 Melanoma (intraperitoneal) in B6D2F1 (BDF1) mice
Settings: T/C endpoint: median survival time, higher T/C = longer survival
How it was run: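 In this screen, activity was judged from survival or tumor size in treated versus vehicle-treated tumor-bearing mice, reported as T/C.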

[1] = dose: 100.0 mg/kg/injection, schedule: Q01DX009 (ip), vehicle: Klucel (hydroxypropylcellulose) (HPC)
[2] = dose: 200.0 mg/kg/injection, schedule: Q01DX009 (ip), vehicle: Klucel (hydroxypropylcellulose) (HPC)
[3] = dose: 200.0 mg/kg/injection, schedule: Q01DX009 (ip), vehicle: saline
[4] = dose: 400.0 mg/kg/injection, schedule: Q01DX009 (ip), vehicle: Klucel (hydroxypropylcellulose) (HPC)
[5] = dose: 400.0 mg/kg/injection, schedule: Q01DX009 (ip), vehicle: saline with Tween-80
[6] = dose: 400.0 mg/kg/injection, schedule: Q08DX002 (ip), vehicle: saline
[7] = dose: 800.0 mg/kg/injection, schedule: Q01DX002 (ip), vehicle: Klucel (hydroxypropylcellulose) (HPC)
[8] = dose: 800.0 mg/kg/injection, schedule: Q08DX002 (ip), vehicle: Klucel (hydroxypropylcellulose) (HPC)
[9] = dose: 800.0 mg/kg/injection, schedule: Q08DX002 (ip), vehicle: saline with Tween-80
[10] = dose: 800.0 mg/kg/injection, schedule: Q08DX002 (ip), vehicle: saline

SMILES: NC(=O)c1[nH]cnc1/N=N\N(CCCl)CCCl
- T/C (dose: 10.0 mg/kg/injection, schedule: Q01DX009 (ip), vehicle: water): 110 % of control
- T/C (dose: 12.5 mg/kg/injection, schedule: Q01DX009 (ip), vehicle: saline): 107 % of control
- T/C (dose: 12.5 mg/kg/injection, schedule: Q01DX009 (ip), vehicle: steroid suspending solution): 121 % of control
- T/C (dose: 19.0 mg/kg/injection, schedule: Q01DX009 (ip), vehicle: water): 126 % of control
- T/C (dose: 25.0 mg/kg/injection, schedule: Q01DX009 (ip), vehicle: Klucel (hydroxypropylcellulose) (HPC)): 97, 100, 105, 106, 109, 110, 113, 114, 118, 121, 122, 123, 136 % of control
- T/C (dose: 25.0 mg/kg/injection, schedule: Q01DX009 (ip), vehicle: saline with Tween-80, evaluated on day 45): 108 % of control
- T/C (dose: 25.0 mg/kg/injection, schedule: Q01DX009 (ip), vehicle: saline with Tween-80, evaluated on day 60): 98, 100, 103, 107, 109, 111, 112, 114 % of control (2×)
- T/C (dose: 25.0 mg/kg/injection, schedule: Q01DX009 (ip), vehicle: saline): 104, 107, 110, 114, 118, 126, 132 % of control
- T/C (dose: 25.0 mg/kg/injection, schedule: Q01DX009 (ip), vehicle: steroid suspending solution): 121 % of control
- survivor count (dose: 38.0 mg/kg/injection, schedule: Q01DX009 (ip), vehicle: water): 4 of 6
- T/C (dose: 50.0 mg/kg/injection, schedule: Q01DX009 (ip), vehicle: Klucel (hydroxypropylcellulose) (HPC)): 102, 105, 109, 111, 113, 119 (2×), 120, 121 (2×), 123, 125, 127, 142, 144 % of control
- T/C (dose: 50.0 mg/kg/injection, schedule: Q01DX009 (ip), vehicle: saline with Tween-80, evaluated on day 45): 123 % of control [5 of 6 alive]
- T/C (dose: 50.0 mg/kg/injection, schedule: Q01DX009 (ip), vehicle: saline with Tween-80, evaluated on day 60): 103, 105, 108, 115, 122, 125, 126, 136, 148 % of control
- T/C (dose: 50.0 mg/kg/injection, schedule: Q01DX009 (ip), vehicle: saline): 102, 112, 125, 140, 141, 147 % of control (2×)
- T/C (dose: 50.0 mg/kg/injection, schedule: Q01DX009 (ip), vehicle: steroid suspending solution): 147 % of control
- T/C (dose: 75.0 mg/kg/injection, schedule: Q01DX009 (ip), vehicle: water): 121 % of control [5 of 6 alive]
- T/C (dose: 77.8 mg/kg/injection, schedule: Q01DX009 (ip), vehicle: DMSO): 119 % of control
- T/C (dose: 100.0 mg/kg/injection, schedule: Q01DX002 (ip), vehicle: Klucel (hydroxypropylcellulose) (HPC)): 95, 121, 123, 136 % of control
- T/C [1]: 115 (2×), 122, 129, 130, 132, 133 (2×), 134, 142, 150, 192, 200, 215 % of control
- survivor count [1]: 6 of 6
- T/C (dose: 100.0 mg/kg/injection, schedule: Q01DX009 (ip), vehicle: saline with Tween-80, evaluated on day 45): 164 % of control
- T/C (dose: 100.0 mg/kg/injection, schedule: Q01DX009 (ip), vehicle: saline with Tween-80, evaluated on day 60): 125 [5 of 6 alive], 130, 152, 165 [5 of 6 alive], 168, 170, 178, 182, 186 % of control
- T/C (dose: 100.0 mg/kg/injection, schedule: Q01DX009 (ip), vehicle: saline): 91, 120, 126, 135, 138, 150, 168 % of control
- T/C (dose: 100.0 mg/kg/injection, schedule: Q01DX009 (ip), vehicle: steroid suspending solution): 202 % of control
- T/C (dose: 100.0 mg/kg/injection, schedule: Q08DX002 (ip), vehicle: Klucel (hydroxypropylcellulose) (HPC)): 102, 109, 111, 114, 121 (2×), 135, 136, 140, 143, 144 % of control
- T/C (dose: 100.0 mg/kg/injection, schedule: Q08DX002 (ip), vehicle: saline with Tween-80, evaluated on day 45): 95 and 127 % of control (2×)
- T/C (dose: 100.0 mg/kg/injection, schedule: Q08DX002 (ip), vehicle: saline with Tween-80, evaluated on day 60): 92, 96, 105, 108, 110, 120, 121, 122, 123 % of control
- T/C (dose: 100.0 mg/kg/injection, schedule: Q08DX002 (ip), vehicle: saline): 93, 94, 97, 111, 141 % of control
- T/C (dose: 130.0 mg/kg/injection, schedule: Q01DX009 (ip), vehicle: DMSO): 156 % of control
- T/C (dose: 150.0 mg/kg/injection, schedule: Q01DX009 (ip), vehicle: water): 94 % of control
- T/C (dose: 200.0 mg/kg/injection, schedule: Q01DX002 (ip), vehicle: Klucel (hydroxypropylcellulose) (HPC)): 105, 126, 163 [5 of 6 alive], 192 % of control
- T/C [2]: 88, 95, 100, 107, 111 (2×), 115, 121, 126, 130, 145, 169, 186 % of control
- survivor count [2]: 6 of 6
- T/C (dose: 200.0 mg/kg/injection, schedule: Q01DX009 (ip), vehicle: saline with Tween-80, evaluated on day 45): 97 % of control
- T/C (dose: 200.0 mg/kg/injection, schedule: Q01DX009 (ip), vehicle: saline with Tween-80, evaluated on day 60): 87, 97, 110, 125, 135 % of control
- survivor count (dose: 200.0 mg/kg/injection, schedule: Q01DX009 (ip), vehicle: saline with Tween-80): 6 of 6
- T/C [3]: 110, 129, 169, 210 % of control
- survivor count [3]: 6 of 6
- T/C (dose: 200.0 mg/kg/injection, schedule: Q01DX009 (ip), vehicle: steroid suspending solution): 236 % of control
- T/C (dose: 200.0 mg/kg/injection, schedule: Q08DX002 (ip), vehicle: Klucel (hydroxypropylcellulose) (HPC)): 113, 122, 127 [5 of 6 alive], 142 (2×), 158, 164, 175, 178 (2×), 200 % of control
- T/C (dose: 200.0 mg/kg/injection, schedule: Q08DX002 (ip), vehicle: saline with Tween-80, evaluated on day 45): 120, 132, 135 % of control
- T/C (dose: 200.0 mg/kg/injection, schedule: Q08DX002 (ip), vehicle: saline with Tween-80, evaluated on day 60): 98, 105, 120 (2×), 135, 152, 163, 171, 191 % of control
- T/C (dose: 200.0 mg/kg/injection, schedule: Q08DX002 (ip), vehicle: saline): 87, 97, 97 [5 of 6 alive], 108, 158 % of control
- survivor count (dose: 216.0 mg/kg/injection, schedule: Q01DX009 (ip), vehicle: DMSO): 10 of 10
- survivor count (dose: 360.0 mg/kg/injection, schedule: Q01DX009 (ip), vehicle: DMSO): 10 of 10
- T/C (dose: 400.0 mg/kg/injection, schedule: Q01DX002 (ip), vehicle: Klucel (hydroxypropylcellulose) (HPC)): 111, 145, 147 [5 of 6 alive], 242 % of control
- T/C [4]: 86, 95, 100 (2×), 133 % of control
- survivor count [4]: 1 of 6, 5 of 6, 6 of 6
- T/C [5]: 100, 100 [5 of 6 alive], 102 % of control
- survivor count [5]: 5 of 6, 5 of 5, 6 of 6 (2×)
- survivor count (dose: 400.0 mg/kg/injection, schedule: Q01DX009 (ip), vehicle: saline): 5 of 6 and 6 of 6
- survivor count (dose: 400.0 mg/kg/injection, schedule: Q01DX009 (ip), vehicle: steroid suspending solution): 6 of 6
- T/C (dose: 400.0 mg/kg/injection, schedule: Q08DX002 (ip), vehicle: Klucel (hydroxypropylcellulose) (HPC)): 104, 114, 119, 120, 126 [5 of 6 alive], 127, 145 [5 of 6 alive], 165, 180, 197, 306 % of control
- T/C (dose: 400.0 mg/kg/injection, schedule: Q08DX002 (ip), vehicle: saline with Tween-80, evaluated on day 45): 115, 140, 165 % of control
- T/C (dose: 400.0 mg/kg/injection, schedule: Q08DX002 (ip), vehicle: saline with Tween-80, evaluated on day 60): 112, 122, 142, 143, 157 (2×), 170, 182, 184 % of control
- T/C [6]: 100 (2×), 144, 145 % of control
- survivor count [6]: 6 of 6
- T/C [7]: 88, 92, 105 % of control
- survivor count [7]: 6 of 6
- T/C [8]: 100, 104, 113, 116, 117, 125, 172 % of control [5 of 6 alive]
- survivor count [8]: 6 of 6
- T/C [9]: 91, 95, 123, 188 % of control
- survivor count [9]: 2 of 6 and 6 of 6 (2×)
- T/C [10]: 100 % of control
- survivor count [10]: 0 of 6, 4 of 6, 6 of 6
